Entries after “also recorded” stand apart in the source; their conditions may differ. For at least one compound, name, drawing or mass did not settle the structure.
Tested on: distal colon mucosa/submucosa preparations
Assay: Ussing chamber: short circuit current (chloride ion secretion) across colonic mucosa/submucosa preparations
Format: cell-based, guinea pig

CC(=O)OCC[N+](C)(C)C [acetylcholine]
Change in short circuit current ISC (chloride ion secretion): increase in ISC; also recorded: clearly stimulate secretion
